Results deposited as PubChem BioAssay AID686937 (Drosophila RNAi Screening Center, 2013).

- Test: 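Genes whose loss weakens secretory pathway function in fly cells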 (primary screen)
- System: Drosophila S2 cells expressing secreted horseradish peroxidase
- Reagents: long dsRNA against Drosophila genes
- Duration: about 5.5 days (5 days dsRNA, then 12 h reporter induction)
- Challenge: reporter expression induced after 5 days of dsRNA, read 12 h later; inducer not stated
- Read-out: 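After 5 days of dsRNA and 12 h of reporter induction, medium peroxidase read by chemiluminescence and scored as per-plate z-score; higher values mean more reporter released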
- Reading the numbers: z-score: higher = more reporter secreted into medium
In all, the deposit lists about 23,000 reagents; below is an unselected part of those that have a named target and a result. 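Reduced-secretion tags in replicate 1 do not always agree with the z-scores; no criterion for assigning the tags was given.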 A plus sign joins genes that one reagent is predicted to hit. Not all columns of the deposit are shown. Not given: the amount of reagent.

target gene | dsRNA | z-score, replicate 1
msd5 | DRSC08560 | 0.21
CG12576 | DRSC20621 | 0.22
tou | DRSC06006 | 0.26
tou | DRSC22710 | 1.64
Oatp58Dc | DRSC04363 | 0.17
Helz | DRSC11072 | 0.42
fz | DRSC11348 | 0.2
CG31562 (retired record) | DRSC12273 | 0.32
CG31562 (retired record) | DRSC12274 | 0.32
Ero1L | DRSC08660 | -0.12
Npc2a | DRSC00698 | 0.2
Alg2 | DRSC08298 | -1.22
Tre1 | DRSC18726 | -0.1
eIF4G1 | DRSC17218 | -1.31
CG6026 | DRSC15950 | 0.45
colt | DRSC00808 | 0.13
CG8093 | DRSC07078 | 0.13
ATP7 | DRSC19819 | 0.38
CG32444 | DRSC11677 | 0.36
brun | DRSC02706 | 0.04
Shark | DRSC07680 | 0.24
Adar | DRSC17725 | 0.16
metro | DRSC06341 | 0.42
metro | DRSC06725 | -0.15
LpR1 | DRSC15665 | 0.39
LpR1 | DRSC15669 | 0.26
LpR1 | DRSC15670 | 0.41
CG14088 | DRSC10092 | 0.45
CG7903 | DRSC16338 | 0.08
CG7484 | DRSC10853 | -0.41
TTLL6B | DRSC15932 | -0.13
CG31313 | DRSC13044 | -1.16

12 entries already listed, sorted by “z-score, replicate 1”, low to high.
target gene | dsRNA | z-score, replicate 1
eIF4G1 | DRSC17218 | -1.31
metro | DRSC06725 | -0.15
brun | DRSC02706 | 0.04
colt | DRSC00808 | 0.13
CG8093 | DRSC07078 | 0.13
Adar | DRSC17725 | 0.16
Shark | DRSC07680 | 0.24
CG32444 | DRSC11677 | 0.36
ATP7 | DRSC19819 | 0.38
LpR1 | DRSC15665 | 0.39
metro | DRSC06341 | 0.42
CG6026 | DRSC15950 | 0.45

Further results follow.
target gene | dsRNA | z-score, replicate 1
CG11164 | DRSC19392 | 0.01
CG12608 | DRSC19472 | -0.12
ssp5 | DRSC14955 | 0.03
Gpo3 | DRSC01978 | 0.53
CG33111 | DRSC14208 | 0.09
CG33111 | DRSC14444 | 0.37
CG3036 | DRSC00260 | 0.19
CG3036 | DRSC00562 | 0.36
Wsck | DRSC13682 | 0.05
CG30278 | DRSC22787 | 2.3
Ccn | DRSC09504 | 0.07
Ccn | DRSC09506 | -1.96
Ccn | DRSC10062 | 0.25
Ccn | DRSC10063 | -0.2
Tmep | DRSC08215 | 0.13
Lipt1 | DRSC05600 | -0.09
CG5693 | DRSC02878 | 0.19
PolD1 | DRSC11138 | 0.05
neb | DRSC03577 | 0.18
CG1105 | DRSC12528 | 0.24
Ir8a | DRSC17817 | 0.39
Ir8a | DRSC17869 | 0.46
glo | DRSC16145 | 0.29
Nepl4 | DRSC03239 | 0.09
CG10853 | DRSC08164 | 0.46
CG8539 | DRSC10988 | 0.25
CG8539 | DRSC21798 | -0.45
sff | DRSC10590 | 0.33
CtsL1 | DRSC05462 | -0.03
CtsL1 | DRSC07363 | 0.2
sala + CG43355 | DRSC01188 | 0.5
sala + CG43355 | DRSC03605 | -0.42
GstD6 | DRSC16687 | 0.44
ERR | DRSC10840 | 0.01
CG31106 | DRSC14655 | 0.19
CG32700 | DRSC17857 | 0.19
CG32700 | DRSC17858 | 0.3
CG13723 | DRSC10052 | 0.34
mei-217 + mei-218 | DRSC20349 | 0.05
Chro | DRSC11630 | -0.53
CG8192 | DRSC07101 | 0.76
CR33283 | DRSC22918 | -0.82
Shal | DRSC09625 | -1.96
Shal | DRSC11283 | 0.09
CG12607 | DRSC08287 | 0.18
kis | DRSC00521 | 0.29
kis | DRSC00625 | 0.04
kis | DRSC00823 | 0.31
SecS | DRSC12222 | 0.32
CG1074 | DRSC12143 | 0.29
